Data: the supplement of paper PMC10331698
± gives the standard deviation of the averaged measurements. Most entries show no effect beyond the scatter of the controls.

Tests used:
Test in all cases: level (log10 ratio to DMSO vehicle control); higher = higher biomarker level / cell amount than vehicle control
Perfluorobutanoic acid = compound: O=C(O)C(F)(F)C(F)(F)C(F)(F)F [Perfluorobutanoic acid]; settings: 2200 nM; in DMSO
Method: (§1)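 BioMAP Diversity Plus panel of 12 human primary cell co-culture systems (3C, 4H, LPS, SAg, BT, BF4T, BE3C, CASM3C, HDF3CGF, KF3CT, MyoF, Mphg). Compounds were added 1 h before stimulation and left for 24 h (MyoF 48 h; BT 72 h for soluble read-outs or 6 d for IgG). Biomarkers were read by ELISA, cytotoxicity by SRB, PBMC viability and proliferation by Alamar Blue. Each well value was divided by the mean of 8 DMSO control wells on the same plate and log10 transformed; duplicate blinded samples were tested at 4 concentrations.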

[1] = compound: FC(F)C(F)(F)COCC1CO1 [((2,2,3,3-Tetrafluoropropoxy)methyl)oxirane]; settings: 2200 nM; in DMSO
Method: as §1

[2] = compound: O=S(=O)(Cl)C(F)(F)C(F)(F)C(F)(F)C(F)(F)C(F)(F)C(F)(F)C(F)(F)C(F)(F)F [Perfluoro-1-octanesulfonyl chloride]; settings: 2200 nM; in DMSO
Method: as §1

[3] = compound: O=C(O)C(F)(F)OC(F)(F)C(F)(F)OC(F)(F)C(F)(F)C(F)(F)C(F)(F)F [Perfluoro-3,6-dioxadecanoic acid]; settings: 2200 nM; in DMSO
Method: as §1

[4] = compound: FC(F)(F)C(F)(F)C(F)(F)C(F)(F)C(F)(F)C(F)(F)C(F)(F)CCI [1-Iodo-1H,1H,2H,2H-perfluorononane]; settings: in DMSO
Method: as §1

Perfluoroundecanoic acid = compound: O=C(O)C(F)(F)C(F)(F)C(F)(F)C(F)(F)C(F)(F)C(F)(F)C(F)(F)C(F)(F)C(F)(F)C(F)(F)F [Perfluoroundecanoic acid]; settings: in DMSO
Method: as §1

[5] = compound: O=C(O)C(F)(F)OC(F)(F)C(F)(F)OC(F)(F)C(=O)O [Perfluoro-3,6-dioxaoctane-1,8-dioic acid]; settings: 2200 nM; in DMSO
Method: as §1

Perfluorooctanamide = compound: NC(=O)C(F)(F)C(F)(F)C(F)(F)C(F)(F)C(F)(F)C(F)(F)C(F)(F)F [Perfluorooctanamide]; settings: 2200 nM; in DMSO
Method: as §1

[6] = compound: O=C(O)C=CC(F)(C(F)(F)F)C(F)(F)F [3-(Perfluoroisopropyl)-2-propenoic acid]; settings: in DMSO
Method: as §1

[7] = compound: O=P(O)(O)CCC(F)(F)C(F)(F)C(F)(F)C(F)(F)C(F)(F)C(F)(F)C(F)(F)C(F)(F)F [((Perfluorooctyl)ethyl)phosphonic acid]; settings: 2200 nM; in DMSO
Method: as §1

[8] = compound: FC(F)(F)C(F)(F)C(F)(F)C(F)(F)C(F)(F)C(F)(F)C(F)(F)I [1-Iodopentadecafluoroheptane]; settings: in DMSO
Method: as §1

[9] = compound: C=C(C)C(=O)OCC(F)(F)C(F)(F)C(F)(F)F [2,2,3,3,4,4,4-Heptafluorobutyl methacrylate]; settings: 2200 nM; in DMSO
Method: as §1

[10] = compound: O=C(O)C(F)(F)C(F)(F)C(F)(F)C(F)(F)C(F)(F)C(F)(F)C(F)(F)C(F)F [9-H-Perfluorononanoic acid]; settings: 2200 nM; in DMSO
Method: as §1

[11] = compound: O=C(O)C(F)(F)C(F)(F)OC(F)(F)F [Perfluoro-3-methoxypropanoic acid]; settings: 2200 nM; in DMSO
Method: as §1

[12] = compound: OCC(F)(F)C(F)(F)C(F)(F)C(F)(F)C(F)(F)C(F)(F)C(F)(F)C(F)(F)C(F)(F)C(F)(F)C(F)(F)F [11:1 Fluorotelomer alcohol]; settings: in DMSO
Method: as §1

[13] = compound: OCCC(F)(F)C(F)(F)C(F)(F)C(F)(F)C(F)(F)C(F)(F)C(F)(F)C(F)(F)F [8:2 Fluorotelomer alcohol]; settings: 2200 nM; in DMSO
Method: as §1

[14] = compound: C=CC(=O)OCC(F)(F)C(F)(F)C(F)(F)C(F)(F)COC(=O)C=C [1H,1H,6H,6H-Perfluorohexane-1,6-diol diacrylate]; settings: 2200 nM; in DMSO
Method: as §1

Perfluoropropanoic acid = compound: O=C(O)C(F)(F)C(F)(F)F [Perfluoropropanoic acid]; settings: 2200 nM; in DMSO
Method: as §1

| Test System | level (log10) (Perfluorobutanoic acid) | level (log10) [1] | level (log10) [2] | level (log10) [3] | level (log10) ([4]; 740 nM) | level (log10) ([4]; 2200 nM) | level (log10) ([4]; 6700 nM) | level (log10) ([4]; 20000 nM) | level (log10) (Perfluoroundecanoic acid; 740 nM) | level (log10) (Perfluoroundecanoic acid; 2200 nM) | level (log10) [5] | level (log10) (Perfluorooctanamide) | level (log10) ([6]; 2200 nM) | level (log10) ([6]; 6700 nM) | level (log10) ([6]; 20000 nM) | level (log10) ([6]; 60000 nM) | level (log10) [7] | level (log10) ([8]; 740 nM) | level (log10) ([8]; 2200 nM) | level (log10) ([8]; 6700 nM) | level (log10) ([8]; 20000 nM) | level (log10) [9] | level (log10) [10] | level (log10) [11] | level (log10) ([12]; 370 nM) | level (log10) ([12]; 1100 nM) | level (log10) ([12]; 3300 nM) | level (log10) ([12]; 10000 nM) | level (log10) [13] | level (log10) [14] | level (log10) (Perfluoropropanoic acid) |
| --- | --- | --- | --- | --- | --- | --- | --- | --- | --- | --- | --- | --- | --- | --- | --- | --- | --- | --- | --- | --- | --- | --- | --- | --- | --- | --- | --- | --- | --- | --- | --- |
| lMphg:M-CSF | 0.01 ± 0.017 | -0.0195 ± 0.0092 | -0.023 ± 0.018 | -0.019 ± 0.03 | -0.0115 ± 0.042 | -0.029 ± 0.035 | -0.023 ± 0.037 | -0.015 ± 0.0014 | 0.0145 ± 0.0035 | 0.0135 ± 0.025 | 0.012 ± 0.023 | 0.02 ± 0.033 | -0.009 ± 0.02 | -0.0105 ± 0.0064 | -0.021 ± 0.014 | -0.015 ± 0.025 | -0.01 ± 0.024 | 0.0235 ± 0.016 | 0.0065 ± 0.015 | -0.0015 ± 0.042 | 0.015 ± 0.0014 | -0.001 ± 0.061 | -0.006 ± 0.021 | 0.01 ± 0.024 | -0.0015 ± 0.018 | -0.0045 ± 0.005 | -0.0195 ± 0.0078 | -0.0735 ± 0.016 | -0.007 ± 0.028 | -0.021 ± 0.0042 | -0.02 ± 0.0014 |
| BE3C:uPA | 0.0215 ± 0.018 | 0.0025 ± 0.022 | 0.0015 ± 0.012 | 0.004 ± 0.027 | 0.0005 ± 0.033 | -0.014 ± 0.035 | 0.003 ± 0.033 | -0.0125 ± 0.015 | 0.0015 ± 0.016 | -0.006 ± 0.0014 | -0.0035 ± 0.023 | -0.0035 ± 0.0035 | 0.005 ± 0.0071 | -0.0045 ± 0.005 | -0.001 ± 0.0057 | 0.0045 ± 0.0021 | 0.0045 ± 0.016 | 0.0015 ± 0.0021 | -0.005 ± 0.0099 | -0.0135 ± 0.0035 | -0.009 ± 0.0099 | -0.0095 ± 0.029 | 0.0025 ± 0.00071 | 0.0005 ± 0.013 | -0.0165 ± 0.022 | -0.0155 ± 0.013 | -0.0405 ± 0.0078 | -0.0175 ± 0.0035 | -0.007 ± 0.016 | -0.001 ± 0.013 | -0.0035 ± 0.046 |
| LPS:IL-1alpha | -0.0075 ± 0.022 | 0.007 ± 0.03 | 0.0105 ± 0.033 | 0.0025 ± 0.029 | -0.0175 ± 0.005 | -0.0085 ± 0.012 | -0.008 ± 0.041 | 0.031 ± 0.016 | -0.115 ± 0.028 | -0.0935 ± 0.057 | -0.029 ± 0.062 | -0.022 ± 0.011 | 0.044 ± 0.069 | 0.025 ± 0.034 | 0.0195 ± 0.05 | 0.0605 ± 0.023 | -0.012 ± 0.018 | -0.0225 ± 0.071 | -0.077 ± 0.11 | -0.0655 ± 0.03 | -0.0495 ± 0.047 | -0.0105 ± 0.023 | -0.005 ± 0.013 | -0.0215 ± 0.023 | -0.0025 ± 0.0092 | -0.0655 ± 0.0092 | -0.14 ± 0.0035 | -0.144 ± 0.012 | -0.003 ± 0.016 | 0.0225 ± 0.03 | -0.039 ± 0.011 |
| BE3C:IL-1alpha | 0.0365 ± 0.012 | -0.0165 ± 0.0035 | 0.011 ± 0.014 | 0.0025 ± 0.0035 | -0.0075 ± 0.022 | 0.0015 ± 0.032 | -0.0075 ± 0.0078 | 0.0075 ± 0.026 | -0.017 ± 0.0071 | -0.0175 ± 0.00071 | 0.0265 ± 0.016 | 0.006 ± 0.0014 | -0.0075 ± 0.033 | -0.001 ± 0.031 | -0.0065 ± 0.0064 | 0.0025 ± 0.005 | 0.005 ± 0.013 | -0.0215 ± 0.00071 | -0.0065 ± 0.0092 | -0.0175 ± 0.005 | -0.0185 ± 0.0021 | 0.0025 ± 0.00071 | 0.025 ± 0.03 | 0.012 ± 0.031 | 0.007 ± 0.013 | -0.011 ± 0.018 | -0.0325 ± 0.0021 | -0.029 ± 0.02 | 0 ± 0.0099 | -0.0145 ± 0.013 | -0.023 ± 0.0057 |
